PubChem BioAssay AID1159584 | Peter MacCallum Cancer Centre, 2016
Screen: 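Knock-downs that harm CDH1-null cells more than parental MCF10A cells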 (primary screen). Cell system: human MCF10A breast epithelial cells, parental and CDH1-null. Reagents: siRNA against human genes. Measurement: 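Cell viability by CellTiter-Glo ATP luminescence, each line scaled to the mean of mock wells across plates, then CDH1-null over parental ratio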. Reading the numbers: CDH1-null / parental viability ratio: higher = CDH1-null cells survive relatively better than parental; CDH1-null viability vs mock: higher = more viable CDH1-null cells; parental viability vs mock: higher = more viable parental cells.
The whole screen tested about 18,000 reagents; this is a random part of them. Reagents against one gene are numbered here. Not given: the amount of reagent, the time to read-out.

target,reagent,CDH1-null / parental viability ratio,CDH1-null viability vs mock (fraction of mock),parental viability vs mock (fraction of mock)
ATP6V1G2 (ATPase H+ transporting V1 subunit G2),1,1,0.84,0.84
SIDT2 (SID1 transmembrane family member 2),1,0.9,0.81,0.9
KLHL42 (kelch like family member 42),1,0.76,0.47,0.62
TPD52L3 (TPD52 like 3),1,0.71,0.54,0.76
STUB1 (STIP1 homology and U-box containing protein 1),1,1.03,0.92,0.89
CHST8 (carbohydrate sulfotransferase 8),1,1.09,0.73,0.67
SP6 (Sp6 transcription factor),1,1.13,0.6,0.53
BAZ2B (bromodomain adjacent to zinc finger domain 2B),1,0.91,0.75,0.82
C1orf174 (chromosome 1 open reading frame 174),1,1.52,0.76,0.5
UGT2A3 (UDP glucuronosyltransferase family 2 member A3),1,1.19,1.02,0.86
CENPU (centromere protein U),1,1.1,0.88,0.8
TWF2 (twinfilin actin binding protein 2),1,1.08,0.92,0.85
GALNT11 (polypeptide N-acetylgalactosaminyltransferase 11),1,0.63,0.55,0.87
TM9SF2 (transmembrane 9 superfamily member 2),1,1.15,0.9,0.78
KDM1B (lysine demethylase 1B),1,0.7,0.57,0.82
KCNMA1 (potassium calcium-activated channel subfamily M alpha 1),1,1.11,0.98,0.88
BPIFA3 (BPI fold containing family A member 3),1,0.9,1.09,1.21
KLRB1 (killer cell lectin like receptor B1),1,1.12,0.94,0.84
MSANTD3 (Myb/SANT DNA binding domain containing 3),1,0.76,0.75,0.99
MUTYH (mutY DNA glycosylase),1,0.98,0.87,0.89
CREB1 (cAMP responsive element binding protein 1),1,0.66,0.57,0.86
AMFR (autocrine motility factor receptor),1,0.82,0.66,0.8
PEX7 (peroxisomal biogenesis factor 7),1,0.97,1.12,1.15
SH2D6 (SH2 domain containing 6),1,1.02,0.92,0.9
ABCB9 (ATP binding cassette subfamily B member 9),1,1.09,1.02,0.94
LRRC18 (leucine rich repeat containing 18),1,0.96,0.44,0.46
PLPBP (pyridoxal phosphate binding protein),1,1.09,0.48,0.44
WDR49 (WD repeat domain 49),1,0.89,0.55,0.62
UBE2I (ubiquitin conjugating enzyme E2 I),1,1.22,0.61,0.5
NEK5 (NIMA related kinase 5),1,0.99,0.99,1
MTBP (MDM2 binding protein),1,1.15,1,0.87
SNAPC3 (small nuclear RNA activating complex polypeptide 3),1,1.07,1.03,0.96
PF4 (platelet factor 4),1,0.91,0.84,0.92
PRKCSH (PRKCSH beta subunit of glucosidase II),1,0.94,0.78,0.83
UTP14A (UTP14A small subunit processome component),1,1.1,0.55,0.5
KLHL6 (kelch like family member 6),1,1.03,0.8,0.78
COLQ,1,1.1,0.68,0.62
FBXO44 (F-box protein 44),1,1.06,0.93,0.88
ZPBP2 (zona pellucida binding protein 2),1,1,0.78,0.78
ARL4A (ARF like GTPase 4A),1,1.07,1.04,0.97
BCLAF3 (BCLAF1 and THRAP3 family member 3),1,1.13,1.06,0.94
RNF181 (ring finger protein 181),1,0.83,0.85,1.02
SLC30A6,1,1.06,0.89,0.84
SRRM4 (serine/arginine repetitive matrix 4),1,0.87,0.72,0.83
OR2M7 (olfactory receptor family 2 subfamily M member 7),1,0.88,0.56,0.64
NPS (neuropeptide S),1,1.14,1.04,0.91
CDK2AP2 (cyclin dependent kinase 2 associated protein 2),1,1.39,0.53,0.38
TPI1 (triosephosphate isomerase 1),1,1,1.06,1.06
FAM227B (family with sequence similarity 227 member B),1,0.77,0.77,1
DIPK1C (divergent protein kinase domain 1C),1,0.96,0.73,0.76
ZNF75D (zinc finger protein 75D),1,1.04,0.96,0.92
PSME4 (proteasome activator subunit 4),1,0.96,0.86,0.9
SCFD2 (sec1 family domain containing 2),1,1,0.82,0.82
CD5 (CD5 molecule),1,0.71,0.55,0.77
GLP2R (glucagon like peptide 2 receptor),1,1.4,0.98,0.7
EIF3A (eukaryotic translation initiation factor 3 subunit A),1,1,0.52,0.52
MECOM (MDS1 and EVI1 complex locus),1,0.92,0.82,0.89
MECOM (MDS1 and EVI1 complex locus),2,1.12,1.06,0.95
LPCAT1 (lysophosphatidylcholine acyltransferase 1),1,0.95,0.8,0.84
PANK4 (pantothenate kinase 4 (inactive)),1,0.8,0.66,0.82
HAL (histidine ammonia-lyase),1,0.85,0.57,0.67
CHST2 (carbohydrate sulfotransferase 2),1,1.01,0.91,0.9
SPMIP8 (sperm microtubule inner protein 8),1,1.13,0.88,0.78
GUCA2B (guanylate cyclase activator 2B),1,0.91,0.62,0.68
IFNL1 (interferon lambda 1),1,0.89,0.64,0.72
RNF103 (ring finger protein 103),1,0.96,0.96,1
MYO7B (myosin VIIB),1,1.02,0.88,0.86
PLA2G3 (phospholipase A2 group III),1,1.09,0.95,0.87
C2orf68 (chromosome 2 open reading frame 68),1,0.7,0.51,0.73
DTNB (dystrobrevin beta),1,1.28,1,0.78
PAEP (progestagen associated endometrial protein),1,1.11,0.99,0.89
"PPM1E (protein phosphatase, Mg2+/Mn2+ dependent 1E)",1,1.64,0.82,0.5
PGM5 (phosphoglucomutase 5),1,1.01,0.87,0.86
MARK3 (microtubule affinity regulating kinase 3),1,0.93,0.53,0.57
HOXA2 (homeobox A2),1,1.11,1.04,0.94
FAM120B (family with sequence similarity 120 member B),1,0.95,0.76,0.8
DCAF4L1 (DDB1 and CUL4 associated factor 4 like 1),1,0.99,0.9,0.91
SLC2A6,1,0.99,0.89,0.9
CHCHD6 (coiled-coil-helix-coiled-coil-helix domain containing 6),1,1.2,1.04,0.87
SOCS3 (suppressor of cytokine signaling 3),1,0.93,0.63,0.68
SPATA46 (spermatogenesis associated 46),1,1.17,1.21,1.03
HNRNPK (heterogeneous nuclear ribonucleoprotein K),1,1,0.16,0.16
KREMEN1 (kringle containing transmembrane protein 1),1,1.89,0.68,0.36
RILP (Rab interacting lysosomal protein),1,0.94,0.33,0.35
BIRC8 (baculoviral IAP repeat containing 8),1,0.91,0.84,0.92
RUSF1 (RUS family member 1),1,1.07,0.78,0.73
SLITRK5 (SLIT and NTRK like family member 5),1,0.99,0.91,0.92

Copied from the list.
Value of UBE2I (ubiquitin conjugating enzyme E2 I) in “CDH1-null / parental viability ratio”: 1.22
Under “CDH1-null viability vs mock (fraction of mock)”, MECOM (MDS1 and EVI1 complex locus) #1 shows 0.82
MYO7B (myosin VIIB), CDH1-null / parental viability ratio: 1.02
TPD52L3 (TPD52 like 3), parental viability vs mock (fraction of mock) = 0.76
